# Source: paper PMC7819943, “Rice protein-binding microarrays: a tool to detect cis-acting elements near promoter regions in rice”
# Chains of the proteins cited; added tags and fusions are not shown.
# UniProt Q0JBA9, entry or part of it: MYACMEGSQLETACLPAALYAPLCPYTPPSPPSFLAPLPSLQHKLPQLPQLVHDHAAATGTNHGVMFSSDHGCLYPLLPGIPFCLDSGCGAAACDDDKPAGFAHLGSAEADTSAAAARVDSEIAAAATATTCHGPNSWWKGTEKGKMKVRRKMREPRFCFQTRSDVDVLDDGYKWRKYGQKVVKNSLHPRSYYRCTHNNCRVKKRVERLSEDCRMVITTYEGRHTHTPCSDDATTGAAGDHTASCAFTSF
# This is one part of the list.
# Biological target: OsWRKY34 (Oryza sativa, UniProt Q0JBA9 1-250)
# Assay: protein-binding microarray (RPBM); PBS, 2% BSA, 51.3 ng/ul salmon testes DNA, 50 uM zinc acetate, 200 nM TF, 25 C, 1 h; high values mean tight binding
# Details: protein: recombinant; tags: N-terminal polyhistidine and DsRed monomer fusion (pET32a); label: CyDye5-dUTP incorporated in the synthesized complementary strand; 3' TTTTT single-stranded linker to array surface; dsDNA, one strand shown
# In short: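 Per-feature fluorescence intensity (arbitrary units), read on an Axon 4000B scanner, is the binding signal. Transcription factors carrying an N-terminal polyhistidine tag and DsRed fusion were expressed in E. coli BL21-CodonPlus and purified on Ni–NTA. A custom Agilent array, made double-stranded by primer extension with Cy5-dUTP and blocked with 2% BSA, was incubated with 200 nM protein in PBS, 2% BSA, salmon testes DNA and 50 µM zinc acetate at 25 °C for 1 h and then washed.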
row,Sequence,binding signal
1,CCTCCTAGTTCCCTCGGCATGCAGACGATCTGCCAGTTTACGGAGTCACCTAGTGCAG,11700 fluorescence intensity (a.u.)
2,AATTTACTACTACTTTGAATCGTTATTGCAAAAACGCCACCGGAGTCACCTAGTGCAG,8660 fluorescence intensity (a.u.)
3,TTCATCGCCGACAGCCACCTCCGTCTGCCAGCTCACCCCGCGGAGTCACCTAGTGCAG,8410 fluorescence intensity (a.u.)
4,ACCTACCTATACTTCTTATCCAATCACAACCTTATTTTTACGGAGTCACCTAGTGCAG,10600 fluorescence intensity (a.u.)
5,TCCTTTCCACCCTCTCATCAGTTTGCCCACACAGCCGCCGCGGAGTCACCTAGTGCAG,8170 fluorescence intensity (a.u.)
6,CTCCTTTAATTACCATGTATCTCTGTTTTGTACCTCTATCCGGAGTCACCTAGTGCAG,12300 fluorescence intensity (a.u.)
7,GCCCGGCTTTCCCGCGGCGCGCTCTTCTCCTTCCTATAAACGGAGTCACCTAGTGCAG,8960 fluorescence intensity (a.u.)
8,TTCACATATATGTGTGCTGTGATTTTTTTTCTTCCTTACCCGGAGTCACCTAGTGCAG,8400 fluorescence intensity (a.u.)
9,TTCTTCCCCACCGCCGCGGCTGTCCTCCTCACGGGCTTCTCGGAGTCACCTAGTGCAG,8140 fluorescence intensity (a.u.)
10,TTTTCCAAACTTCCAACTTTCTATCACATCAAACCTTTCACGGAGTCACCTAGTGCAG,8100 fluorescence intensity (a.u.)
11,AGAAATTTACGCGACTTTTTTTTTTGTCTTTGATAAATATCGGAGTCACCTAGTGCAG,8500 fluorescence intensity (a.u.)
12,AAGGTAATCGACAACTAGCGCAAGTCCTTTTCATTTTCTTCGGAGTCACCTAGTGCAG,9100 fluorescence intensity (a.u.)
13,GTTGTTTTGACTTTGGTAAAAGTCAAACTATTTAAATTTGCGGAGTCACCTAGTGCAG,14100 fluorescence intensity (a.u.)
14,GCCGACCGCTGTCGTCGACCCTACCCTACCCTCATACGATCGGAGTCACCTAGTGCAG,8890 fluorescence intensity (a.u.)
15,CTCCTACAAGCCGCCGCTCCGACCTCGCCGTCGCCGGTCGCGGAGTCACCTAGTGCAG,8160 fluorescence intensity (a.u.)
16,CTACGACCACCACCACCACCACCACCCTCCGGCCGGCGAGCGGAGTCACCTAGTGCAG,10800 fluorescence intensity (a.u.)
17,TGCCGCCCGACTGATGCACGTCAGTCGGGTCTGACCAGTCCGGAGTCACCTAGTGCAG,8630 fluorescence intensity (a.u.)
18,AGTAGCATTTTGTCTTGTTCGGATCATTGCCCTTGATTTACGGAGTCACCTAGTGCAG,12200 fluorescence intensity (a.u.)
19,GCCGTCCGCCGTGAGCCGGTGCTGTCCACGACGTCGTCTTCGGAGTCACCTAGTGCAG,9640 fluorescence intensity (a.u.)
20,CAGGGTCTGTGCTCAACACTCTATTCTTGTCGTTACTCCTCGGAGTCACCTAGTGCAG,9780 fluorescence intensity (a.u.)
21,GGAAGGCTATGTTTCGTGTTTCCTTTCGTTTCTATTCCGACGGAGTCACCTAGTGCAG,10300 fluorescence intensity (a.u.)
22,CCATACCTAATCCGACGGTGCCCAAATATACCAATTATTTCGGAGTCACCTAGTGCAG,10500 fluorescence intensity (a.u.)
23,TTCGCTCTCCGCCCACTTCCCCATCACGCGCGAGCGCTGCCGGAGTCACCTAGTGCAG,12900 fluorescence intensity (a.u.)
24,AAGACGAACGGTCAAACATTTTTAAAAAAGTCAACGGCGTCGGAGTCACCTAGTGCAG,11900 fluorescence intensity (a.u.)
25,ATCTTTTTTGAACTCGAGCAACGTTGCCCTGCCTGCTTTCCGGAGTCACCTAGTGCAG,9430 fluorescence intensity (a.u.)
26,CAGGTTATAAGATGTTTTGACTTTAGTTAAAGTCAAAGTGCGGAGTCACCTAGTGCAG,10100 fluorescence intensity (a.u.)
27,CCCACAAGCTTCCACGCACCCGCCGGCGTCAGCCTCCACCCGGAGTCACCTAGTGCAG,8120 fluorescence intensity (a.u.)

row,Sequence,binding signal
1,CGCGTCTCTCGTCATGTTGTCCACCTAAAAACCATACACACGGAGTCACCTAGTGCAG,8190 fluorescence intensity (a.u.)
2,TCTATGGGCCGCCTCCATCCCTCAAGTTACCATATCTTCTCGGAGTCACCTAGTGCAG,9350 fluorescence intensity (a.u.)
3,TGGGAGAGCCATTGCTTTACTTGCTTGTTTGTTATCATCACGGAGTCACCTAGTGCAG,10100 fluorescence intensity (a.u.)
4,GAGAGAGGAAGAACAGTACGTGTCTAGGGGCATTTTGGTACGGAGTCACCTAGTGCAG,9700 fluorescence intensity (a.u.)
5,CCTCATCCTTGCCCTTATCTGCCTGTCACCATCACCTGACCGGAGTCACCTAGTGCAG,12600 fluorescence intensity (a.u.)
6,TGGCAGGATTTCTTATGTATTTACCAAATTTGGCAACAAACGGAGTCACCTAGTGCAG,9920 fluorescence intensity (a.u.)
7,GAAGTAGTTCTGACCTTTGAGCTGTACTCTTTTCTTTGTCCGGAGTCACCTAGTGCAG,8750 fluorescence intensity (a.u.)
8,GATGACTTTTTATTGAGCTCTTTGTTGATTTTTCTTGAGTCGGAGTCACCTAGTGCAG,11100 fluorescence intensity (a.u.)
9,AAGACGAATGGTCAAACATGTGAGAAAAAGTCAACGACGTCGGAGTCACCTAGTGCAG,12100 fluorescence intensity (a.u.)
10,CTTTAAATATCCTTTGGCCCTTTCGCCTACCGCACTCACTCGGAGTCACCTAGTGCAG,8320 fluorescence intensity (a.u.)
11,AACCATATTCATTTCATTTCATTCGCGGCTTTAATCTCATCGGAGTCACCTAGTGCAG,11600 fluorescence intensity (a.u.)
12,GGCAACCACCTCAATTATTATTCCATTCCCTACCACCACTCGGAGTCACCTAGTGCAG,9980 fluorescence intensity (a.u.)
13,AATCTGTTATACACACACAACTTTTCAGTCATATTATCTCCGGAGTCACCTAGTGCAG,8780 fluorescence intensity (a.u.)
14,TTGGTGCCAGACTGTTTTGCTTTCTAGATTTGGGGTTTGTCGGAGTCACCTAGTGCAG,8980 fluorescence intensity (a.u.)
15,CGCTGGGGTGGAGGTCTGTCTTCTGTTGAAGGACAAGGGGCGGAGTCACCTAGTGCAG,8850 fluorescence intensity (a.u.)
16,GGGCTTATGGTTACTGCTGCTGCCGCGGCTGCATCGAACACGGAGTCACCTAGTGCAG,9600 fluorescence intensity (a.u.)
17,AGATGATGTCATTGACCATACAAGTTGAAAATAGGAGCAACGGAGTCACCTAGTGCAG,63300 fluorescence intensity (a.u.)
18,GCATTTGTTTCCGTCTTTTTTACATCCCGTTTGATCGGAACGGAGTCACCTAGTGCAG,8620 fluorescence intensity (a.u.)
19,CTCGTTGTCGTGCTGCTTGTAATTCATCTAGTTTGTCTACCGGAGTCACCTAGTGCAG,10000 fluorescence intensity (a.u.)
20,GTCGCTTCTTCTTGGCCATTTCAGCTGTCATTTAGGAGTACGGAGTCACCTAGTGCAG,9130 fluorescence intensity (a.u.)
21,ATCATCGGTTATGTCTATCTCACAACTCAAAAAGTAACATCGGAGTCACCTAGTGCAG,8040 fluorescence intensity (a.u.)
22,AGCGGTTCTGCAACTGTTTGCTATCATTTTTGTGCCGAGACGGAGTCACCTAGTGCAG,8900 fluorescence intensity (a.u.)
23,TTCACCCGTTTAGGTCGCCGCCTCGCCGCTTCCCACTCCCCGGAGTCACCTAGTGCAG,8510 fluorescence intensity (a.u.)
24,GTTTATACGTTTATACTTTCTTCATCATTTATGCCCAACTCGGAGTCACCTAGTGCAG,11000 fluorescence intensity (a.u.)
25,CGGCTTGCATGGACGGATATTCGCCATATTCAGGTCGTTTCGGAGTCACCTAGTGCAG,9550 fluorescence intensity (a.u.)
26,TGTGATCAATGTACTGCCGCTTTTTTTATCTGCTGCATGACGGAGTCACCTAGTGCAG,14400 fluorescence intensity (a.u.)
27,TCAATGATGTGTTGTGTTTGCTCCATGGACCATGGTCCCTCGGAGTCACCTAGTGCAG,10600 fluorescence intensity (a.u.)

# Looked up one by one from above (4):
row,Sequence,binding signal
25,CGGCTTGCATGGACGGATATTCGCCATATTCAGGTCGTTTCGGAGTCACCTAGTGCAG,9550 fluorescence intensity (a.u.)
1,CGCGTCTCTCGTCATGTTGTCCACCTAAAAACCATACACACGGAGTCACCTAGTGCAG,8190 fluorescence intensity (a.u.)
17,AGATGATGTCATTGACCATACAAGTTGAAAATAGGAGCAACGGAGTCACCTAGTGCAG,63300 fluorescence intensity (a.u.)
15,CGCTGGGGTGGAGGTCTGTCTTCTGTTGAAGGACAAGGGGCGGAGTCACCTAGTGCAG,8850 fluorescence intensity (a.u.)
